Test results reported in the supplement of paper PMC6078165.
Values are relative to the signal before dosing, not to a vehicle control; the signal also falls without drug.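 Labels refer to human fibroblasts, largely primary: uterine (C12385, HUF), lung (H6013), bone (Hs27A), adrenal (HADF), skin (WS1), plus mammary HMF and breast cancer-associated Hs343T. Cancer lines are basal-like or mesenchymal-like triple-negative breast cancer. The paper counts as hits responses shifting over 3x the replicate standard deviation. The tissue of the other fibroblasts is not given here.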

System: BT20
Assay: relative JC-1 red fluorescence (viability) vs pre-drug, coculture with fibroblast (fraction); higher = more viable cancer cells
Experimental: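 JC-1 labelled TNBC cells cocultured 1:1 (1,500 cells each) with CellTrace Violet stained primary or stromal fibroblasts in 384-well plates in FluoroBrite medium, treated with one of 42 anticancer drugs at 0.1, 1, 10 or 100 uM. JC-1 red fluorescence (mitochondrial integrity in cancer cells only) was read by plate reader every 8 h for 72 h. Values are normalised to each well's pre-drug value. The stock of one drug was tenfold lower, so its dose labels may be too high.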

Nc1ncn([C@@H]2O[C@H](CO)[C@@H](O)[C@H]2O)c(=O)n1 [Azacitidine]
relative JC-1 red fluorescence
Conditions	8 h	16 h	24 h	32 h	40 h	48 h	56 h	64 h	72 h
0.1 µM, coculture fibroblast: C12385	0.8879	0.839	0.81	0.748	0.684	0.666	0.646	0.641	0.632
0.1 µM, coculture fibroblast: H6013	0.895	0.812	0.853	0.8768	0.856	0.8	0.841	0.911	0.929
0.1 µM, coculture fibroblast: H6019	0.887	0.844	0.869	0.823	0.78	0.764	0.73	0.703	0.679
0.1 µM, coculture fibroblast: H6076	0.943	0.9434	0.886	0.858	0.843	0.839	0.844	0.841	0.8401
0.1 µM, coculture fibroblast: H6231	0.964	0.878	0.815	0.762	0.752	0.719	0.699	0.703	0.698
0.1 µM, coculture fibroblast: HADF	0.978	0.823	0.923	0.825	0.888	0.879	0.808	0.82	0.805
0.1 µM, coculture fibroblast: HCFa	0.9191	0.885	0.863	0.806	0.772	0.749	0.731	0.716	0.682
0.1 µM, coculture fibroblast: HCPF	0.845	0.91761	0.842	0.8	0.776	0.746	0.72	0.735	0.711
0.1 µM, coculture fibroblast: HHSteC	0.9413	0.912	0.906	0.835	0.797	0.77	0.756	0.737	0.715
0.1 µM, coculture fibroblast: HMF	0.962	0.916	0.838	0.803	0.776	0.741	0.719	0.709	0.705
0.1 µM, coculture fibroblast: HPFa	0.912	0.896	0.919	0.857	0.85	0.824	0.813	0.807	0.763
0.1 µM, coculture fibroblast: HUF	0.899	0.822	0.789	0.697	0.643	0.609	0.588	0.58	0.569
0.1 µM, coculture fibroblast: Hs5	0.762	0.952	0.912	0.883	0.8576	0.8338	0.81674	0.792	0.779
0.1 µM, coculture fibroblast: Hs27A	0.932	0.93	0.858	0.842	0.943	0.946	0.9712	0.983	0.952
0.1 µM, coculture fibroblast: Hs343T	0.903	0.906	0.82	0.754	0.697	0.66	0.6035	0.584	0.554
0.1 µM, coculture fibroblast: WS1	0.8446	0.796	0.771	0.707	0.6496	0.6261	0.6	0.584	0.572
1 µM, coculture fibroblast: C12385	0.8867	0.835	0.856	0.811	0.775	0.766	0.762	0.773	0.768
1 µM, coculture fibroblast: H6013	0.908	0.835	0.823	0.769	0.719	0.695	0.685	0.664	0.653
1 µM, coculture fibroblast: H6019	0.823	0.8002	0.7829	0.728	0.68	0.657	0.629	0.605	0.586
1 µM, coculture fibroblast: H6076	0.966	0.903	0.837	0.81281	0.785	0.781	0.773	0.772	0.765
1 µM, coculture fibroblast: H6231	0.814	0.923	0.80014	0.73945	0.68	0.624	0.583	0.55369	0.5349
1 µM, coculture fibroblast: HADF	0.751	0.93	0.84	0.8	0.767	0.718	0.691	0.664	0.631
1 µM, coculture fibroblast: HCFa	0.901	0.8354	0.796	0.739	0.681	0.636	0.595	0.564	0.519
1 µM, coculture fibroblast: HCPF	0.94	0.867	0.839	0.807	0.774	0.748	0.716	0.713	0.685
1 µM, coculture fibroblast: HHSteC	0.909	0.839	0.8078	0.731	0.685	0.64574	0.61608	0.591	0.563
1 µM, coculture fibroblast: HMF	0.927	0.844	0.773	0.7164	0.68	0.642	0.612	0.591	0.575
1 µM, coculture fibroblast: HPFa	0.986	0.928	0.974	0.937	0.962	0.922	0.915	0.892	0.843
1 µM, coculture fibroblast: HUF	0.897	0.814	0.771	0.675	0.623	0.575	0.548	0.53	0.512
1 µM, coculture fibroblast: Hs5	0.92	0.856	0.824	0.795	0.793	0.767	0.764	0.748	0.729
1 µM, coculture fibroblast: Hs27A	0.8644	0.7613	0.9106	0.943	0.923	0.904	0.898	0.877	0.834
1 µM, coculture fibroblast: Hs343T	0.9962	0.868	0.797	0.742	0.691	0.646	0.605	0.59	0.555
1 µM, coculture fibroblast: WS1	0.869	0.802	0.804	0.749	0.706	0.688	0.668	0.65	0.648
10 µM, coculture fibroblast: C12385	0.8456	0.792	0.779	0.733	0.69	0.671	0.64	0.627	0.603
10 µM, coculture fibroblast: H6013	0.905	0.787	0.7532	0.7166	0.6944	0.6703	0.676	0.643	0.636
10 µM, coculture fibroblast: H6019	0.8561	0.829	0.874	0.829	0.806	0.81	0.7958	0.78553	0.7768
10 µM, coculture fibroblast: H6076	0.957	0.853	0.806	0.805	0.783	0.768	0.776	0.78	0.771
10 µM, coculture fibroblast: H6231	0.903	0.9034	0.835	0.767	0.727	0.67	0.615	0.584	0.55
10 µM, coculture fibroblast: HADF	0.959	0.903	0.84	0.815	0.791	0.744	0.721	0.705	0.671
10 µM, coculture fibroblast: HCFa	0.9208	0.8554	0.784	0.742	0.709	0.667	0.646	0.611	0.573
10 µM, coculture fibroblast: HCPF	0.85	0.913	0.869	0.8262	0.8003	0.75	0.71	0.701	0.656
10 µM, coculture fibroblast: HHSteC	0.9151	0.8901	0.8769	0.836	0.801	0.764	0.732	0.714	0.698
10 µM, coculture fibroblast: HMF	0.809	0.915	0.83	0.792	0.763	0.708	0.668	0.625	0.587
10 µM, coculture fibroblast: HPFa	0.8933	0.837	0.83	0.759	0.74	0.7	0.672	0.65	0.604
10 µM, coculture fibroblast: HUF	0.8933	0.842	0.8347	0.763	0.725	0.689	0.676	0.667	0.653
10 µM, coculture fibroblast: Hs5	0.89	0.938	0.884	0.86088	0.8361	0.789	0.756	0.734	0.725
10 µM, coculture fibroblast: Hs27A	0.818	0.824	0.819	0.893	0.843	0.886	0.914	0.813	0.783
10 µM, coculture fibroblast: Hs343T	0.937	0.915	0.843	0.805	0.762	0.725	0.67	0.643	0.606
10 µM, coculture fibroblast: WS1	0.8495	0.781	0.727	0.67	0.616	0.576	0.538	0.508	0.481
100 µM, coculture fibroblast: C12385	0.8596	0.707	0.664	0.617	0.58	0.564	0.551	0.546	0.536
100 µM, coculture fibroblast: H6013	0.825	0.675	0.686	0.583	0.558	0.535	0.557	0.553	0.548
100 µM, coculture fibroblast: H6019	0.791	0.622	0.585	0.507	0.476	0.495	0.504	0.526	0.546
100 µM, coculture fibroblast: H6076	0.9958	0.779	0.562	0.524	0.504	0.49	0.488	0.497	0.492
100 µM, coculture fibroblast: H6231	0.863	0.903	0.783	0.73766	0.69622	0.6497	0.6097	0.585	0.55123
100 µM, coculture fibroblast: HADF	0.923	0.826	0.818	0.763	0.768	0.738	0.73	0.711	0.675
100 µM, coculture fibroblast: HCFa	0.822	0.619	0.558	0.502	0.477	0.462	0.455	0.445	0.42
100 µM, coculture fibroblast: HCPF	0.88	0.8199	0.728	0.682	0.652	0.625	0.598	0.595	0.553
100 µM, coculture fibroblast: HHSteC	0.8674	0.789	0.779	0.727	0.716	0.691	0.681	0.658	0.628
100 µM, coculture fibroblast: HMF	0.9669	0.866	0.7634	0.72611	0.691	0.662	0.635	0.61	0.587
100 µM, coculture fibroblast: HPFa	0.864	0.6341	0.615	0.546	0.538	0.518	0.525	0.514	0.491
100 µM, coculture fibroblast: HUF	0.892	0.779	0.729	0.663	0.63	0.599	0.58	0.565	0.546
100 µM, coculture fibroblast: Hs5	0.879	0.785	0.684	0.652	0.626	0.6	0.59	0.576	0.561
100 µM, coculture fibroblast: Hs27A	0.762	0.844	0.83	0.827	0.806	0.791	0.796	0.886	0.845
100 µM, coculture fibroblast: Hs343T	0.9724	0.863	0.77	0.717	0.691	0.667	0.632	0.619	0.58
100 µM, coculture fibroblast: WS1	0.8169	0.667	0.618	0.555	0.523	0.506	0.491	0.487	0.485
